In US20100040616A1 (published 2010):
No constants are given. Whether binding was seen depends on the method and setting. Binding can be weak; no strength is given. Blank lines part the entries; values can stand above or below the binder they belong to.

Legend:
[1] = biological target: recombinant human CD127 extracellular domain (CD127 ECD) (human); test: SPR (profile summary)
[2] = biological target: recombinant human CD127 extracellular domain (CD127 ECD) (human); test: ELISA: recombinant human CD127 ECD coated at 5 ug/ml, 9B7 hybridoma material titrated, HRP goat anti-mouse IgG detection
[3] = biological target: recombinant human CD127 extracellular domain (CD127 ECD) (human); test: Biacore blocking assay: 10 ug/mL CD127 ECD pre-incubated with 6C5 and injected over immobilised human IL-7 (the blocked ligand)
[4] = biological target: recombinant human CD127 extracellular domain (CD127 ECD) (human); test: Biacore blocking assay: CD127 ECD pre-incubated with antibody and injected over immobilised human IL-7; inhibition ratio = 1 - RU(sample)/RU(ECD)
[5] = biological target: recombinant human CD127 extracellular domain (CD127 ECD) (human); test: Biacore blocking assay: 10 ug/mL CD127 ECD pre-incubated with 6A3 and injected over immobilised human IL-7 (the blocked ligand)

binding [1]: binds
binding [2]: binds
B1: mAb 9B7 (murine anti-human CD127 monoclonal antibody) (antibody, IgG1, V domains shown)
VH: QVQLQESGPGLVAPSQSLSITCTVSGFSLSRYNVHWVRQPPGKGLEWLGMIWDGGSTDYNSALKSRLSITKDNSKSQVFLKMNSLQTDDTAMYYCARNRYESGMDYWGQGTTVTVSS
VL: DIVMTQTPSSLTVTAGEKVTMSCKSSQSLLNSGNRKNYLTWYQQKPGQSPKLLIYWASTRESGVPDRFTGSGSGTDFTLIISSVQAEDLAVYYCQNDYTYPFTFGSGTKLEIKR

binding [3]: binds
binding [4]: binds
B2: mAb 6C5 (murine anti-human CD127 monoclonal antibody) (antibody, mouse IgG1, V domains shown)
VH: EVKLLESGGGLVQPGGSLKLSCAASGFAFSAYWMSWVRQAPGKGLEWIGEINPDSSTINCTPSLKDKFIISRDNAKNTLSLQMNKVRSEDTALYYCARRLRPFWYFDVWGAGTTVTVSS
VL: DVLMTQTPLSLPVSLGDQASISCRSSQSIVQSNGNTYLEWYLQKPGQSPKLLIYKVSNRFSGVPDRFSGSGSGTDFTLKISRVEAEDLGVYYCFQGSHVPRTFGGGTKLEIK
notes: also called Antibody 6C5

binding [5]: binds
binding [4]: binds
B3: mAb 6A3 (murine anti-human CD127 monoclonal antibody) (antibody, mouse IgG1, V domains shown)
VH: DVQLQESGPGLVKPSQSLSLTCTVTGYSITTDYAWNWIRQFPGNKLEWMGYIFYSGSTTYTPSLKSRISITRDTSKNQFFLQLNSVTTEDTATYYCARGGYDVNYFDYWGQGTTLTVSS
VL: DIQMTQSPASQSASLGESVTITCLASQTIGAWLAWYQQKPGKSPQLLIYAATRLADGVPSRFSGSGSGTKFSFKISSLQAEDFVSYYCQQFFSTPWTFGGGTKLEIK
